# Measured values as given in the supplement of paper PMC12578635.
# The other results are listed elsewhere or left out. No stated cut-off is given here; in the data, active = 150% or more and inactive = the rest. Single values are uncertain, as repeats are few or missing.
# System: Staphylococcus aureus JE2-lux inside RAW 264.7 macrophages
# Assay: intracellular bacterial bioluminescence relative to DMSO vehicle; higher = higher intracellular bacterial metabolic activity
# Settings: 10 µM; treatment time 4 h; gentamicin 50 µg/ml
row,SMILES,intracellular bacterial bioluminescence
1,NC(=O)C1CCN(C2=NC(=O)/C(=C\c3ccc(Cl)cc3Cl)S2)CC1,inactive: 87.2%
2,O=C1/C(=C\c2ccncc2)SC(=S)N1Nc1ccc([N+](=O)[O-])cc1[N+](=O)[O-],inactive: 122%
3,Cc1ccc(NS(=O)(=O)c2cc(-c3noc(C4CC4)n3)cs2)nc1,inactive: 88.9%
4,O=C(O)c1ccccc1NC(=O)c1c2c(n3ccccc13)C(=O)c1ccccc1C2=O,inactive: 98%
5,COC(=O)c1sc(NC(=O)CSc2nnc3ccccn23)c(C(=O)OC)c1C,inactive: 26.8%
6,CC(C)c1ccc2[nH]c3nc(SCC(=O)NCc4ccco4)nnc3c2c1,inactive: 63.6%
7,CC(=O)c1ccc(NC(=O)CSc2nnnn2-c2cc(C)cc(C)c2)cc1,inactive: 99.2%
8,CCOc1ccc(C(=O)Nc2ccc(-c3cn4ccc(C)nc4n3)cc2)cc1,inactive: 86.3%
9,CNc1c2c3c(cccc3n(C)c1=O)C(=O)c1ccccc1-2,inactive: 84.4%
10,COCCNC(=O)COc1nc(C)nc2oc(C)c(C)c12,inactive: 94.5%
11,COc1cccc(/C=C2\SC(=S)N(c3ccc(O)c(C(=O)O)c3)C2=O)c1OC,inactive: 114%
12,c1ccc(OCCSc2nnc3sc4ccccc4n23)cc1,inactive: 76.5%
13,O=C(Nc1nc2c(cc3c4c(cccc42)CC3)s1)c1ccc(N2C(=O)CCC2=O)cc1,inactive: 112%
14,Cc1nc(N2CCC(C(=O)NC(C)C(=O)N3CCCCC3)CC2)c2c(C)c(C)oc2n1 (stereo not given),inactive: 65%
15,Cc1ccc(NC(=O)CS(=O)CC(=O)NC2CCc3ccccc32)cc1Cl (stereo not given),inactive: 66.7%
16,Cc1cccc(NC(=O)c2cnc(N3CCCCC3)c3ccccc23)n1,inactive: 81.8%
17,COc1cccc2c1OC(c1ccncc1)N1N=C(c3cc(C)ccc3O)CC21 (stereo not given),inactive: 91.2%
18,Cn1c(=O)c2c(nc(CN3CCN(c4ccccc4)CC3)n2CCN2CCOCC2)n(C)c1=O,inactive: 121%
19,COc1ccccc1-c1ocnc1C(=O)N1CCN(c2ncccn2)CC1,inactive: 98.5%
20,Cc1cc(C)cc(NC(=O)CSc2nccn(-c3ccc(C)c(Cl)c3)c2=O)c1,inactive: 100%
21,Cc1nnc(SCC(=O)Nc2ccc(OC(F)F)cc2)n(N)c1=O,inactive: 135%
22,O=C(CSc1nc2sc3c(c2c(=O)[nH]1)CCCC3)NNC(=O)c1ccco1,inactive: 99.7%
23,Cn1cnnc1SCc1cc(=O)c(OCC(=O)Nc2ccc(Cl)c(Cl)c2)co1,inactive: 45.7%

# 3 structures from above, ordered by heavy-atom count, descending:
row,SMILES,intracellular bacterial bioluminescence
20,Cc1cc(C)cc(NC(=O)CSc2nccn(-c3ccc(C)c(Cl)c3)c2=O)c1,inactive: 100%
3,Cc1ccc(NS(=O)(=O)c2cc(-c3noc(C4CC4)n3)cs2)nc1,inactive: 88.9%
12,c1ccc(OCCSc2nnc3sc4ccccc4n23)cc1,inactive: 76.5%

# (next part)

row,SMILES,intracellular bacterial bioluminescence
1,CCOc1ccc(-c2c3c(nc4sc(C(=O)Nc5nccs5)c(N)c24)CCCC3)cc1,inactive: 77.1%
2,O=C(CCCS(=O)(=O)c1ccccc1)Nc1nc2ccc(Br)cc2s1,inactive: 104%
3,CCc1ccccc1NS(=O)(=O)c1c(C)sc(C)c1-c1cc(C(F)(F)F)on1,inactive: 79.1%
4,COc1ccc(CCNC(=O)c2sc3nc4c(C)cccc4cc3c2N)cc1OC,inactive: 68.8%
5,CCOC(=O)c1sc2nc3c(cc2c1N)C(=O)CCC3,inactive: 110%
6,O=C(CC1Nc2cccc3cccc(c23)NC1=O)Nc1ccc([N+](=O)[O-])cc1 (stereo not given),inactive: 65.8%
7,COc1ccc(Nc2[nH]nnc2C(=O)Nc2ccc(C)c(Cl)c2)cc1Cl,inactive: 87.4%
8,O=C(Nc1ccc2sc(NC(=O)C3CCCCC3)nc2c1)c1cccnc1,inactive: 113%
9,O=S(=O)(c1ccc(F)cc1)N1CCN(c2cnccn2)CC1,inactive: 84.7%
10,N#Cc1ccc(C(=O)Nc2cccc3c2C(=O)c2ccccc2C3=O)cc1,inactive: 114%
11,COc1ccc(NS(=O)(=O)c2cc(-c3ccno3)oc2C)cc1Cl,inactive: 94.1%
12,CC1(C)CC(=O)c2sc(NC(=O)c3cccc(N4C(=O)CCC4=O)c3)nc2C1,inactive: 130%
13,CCN(CC)S(=O)(=O)c1ccc(C(=O)Nc2nnc(-c3cccc(S(C)(=O)=O)c3)o2)cc1,inactive: 105%
14,COc1ccccc1-n1c(=O)[nH]c2c(C(N)=O)nc(-c3cccc(OC)c3O)nc21,inactive: 117%
15,CN(C(=O)c1cnc(N2CCCCC2)c2ccccc12)C1CCCCC1,inactive: 105%
16,C=CCNC(=O)Cn1nc(-c2cc(C)oc2C)cc(N)c1=O,inactive: 120%
17,CCCCC1CCC(C(=O)Oc2cc(C)[nH]c(=O)c2[N+](=O)[O-])CC1 (stereo not given),inactive: 105%
18,CCc1nnc2ccc(C(=O)NCc3ccc(Cl)cc3)cn12,inactive: 86.7%
19,O=C(COc1ccccc1)Nc1nc2c(cc3c4c(cccc42)CC3)s1,inactive: 112%
20,Cc1ccc(S(=O)(=O)N2CCCc3ccc(NC(=O)c4ccc5c(c4)OCO5)cc32)cc1,inactive: 149%
21,Cc1cc(C)c2sc(NNC(=O)c3nc4ccccc4s3)nc2c1,inactive: 104%
22,Cc1nn(C)c2ncc(C(=O)NC3CC3)c(NCc3ccccc3)c12,inactive: 115%
23,O=C1N/C(=N\c2ccccc2)c2c1cccc2[N+](=O)[O-],inactive: 75.7%

row,SMILES,intracellular bacterial bioluminescence
1,CC1CN(CCc2ccccc2)c2nc3c(c(=O)n(CC(=O)OCc4ccccc4)c(=O)n3C)n2C1 (stereo not given),inactive: 99.4%
2,CCOc1ccc(-c2csc3c(=O)n(C)cnc23)cc1OCC,inactive: 80.4%
3,CC1CN(S(=O)(=O)c2ccc(C(=O)NNC(=O)c3ccc4ncsc4c3)cc2)CC(C)O1 (stereo not given),inactive: 101%
4,CCOc1ccc(NC(=O)c2ccc(CNc3nc4[nH]c(C)cc(=O)n4n3)cc2)cc1,inactive: 81.8%
5,N=C1SCC(=O)N1c1ncc(Cc2ccccc2F)s1,inactive: 91.7%
6,Cn1c(SCC(=O)c2ccc(F)cc2)ncc(C(=O)Nc2ccccc2)c1=O,inactive: 92.3%
7,N=C1NC(=O)C(CC(=O)Nc2cccc3ccccc23)S1 (stereo not given),inactive: 104%
8,COc1ccc(CN2Cc3ccncc3C2=O)c(OC)c1,inactive: 105%
9,COc1ccc(NC(=O)COc2nc(C)nc3onc(-c4ccccc4)c23)c(OC)c1,inactive: 12.9%
10,O=c1cc(-c2ccc(F)cc2)nc(N2CCN(Cc3ccc4c(c3)OCO4)CC2)[nH]1,inactive: 53.4%
11,Cc1ccc([N+](=O)[O-])cc1NC(=O)CC(C(=O)O)N1CCN(C)CC1 (stereo not given),inactive: 134%
12,CCOC(=O)CCCSc1nc2sc3c(c2c(=O)[nH]1)CCC3,inactive: 122%
13,CC(=O)NCCNc1nc2c(-c3cccc(C(F)(F)F)c3)nnn2c2ccccc12,inactive: 103%
14,O=C(CSc1nnc(Cc2ccccc2)c(=O)[nH]1)Nc1cccc(C(F)(F)F)c1,inactive: 108%
15,O=C(COc1coc(CN2CCc3ccccc3C2)cc1=O)NCc1ccc2c(c1)OCO2,inactive: 111%
16,COc1ccc(-c2nc(OCC(=O)Nc3cccc(OC)c3)c3c4c(sc3n2)CCCC4)cc1,inactive: 105%
17,N#CC1=C(N)Oc2c(oc(CO)cc2=O)C1c1ccncc1 (stereo not given),inactive: 108%
18,CCOc1ccccc1NC(=O)c1sc2nc(-c3ccc(OC)cc3)cn2c1C,inactive: 118%
19,CCOC(=O)c1cccc(NC(=O)Cn2cc(-c3nnc(CN4CCCCC4)o3)c3ccccc32)c1,inactive: 31%
20,COc1ccc2sc(Nc3ccc(F)cc3F)nc2c1,inactive: 96.8%
21,Cc1cc(NC(=O)Cn2nnc(-c3ccc4c(c3)OCO4)n2)no1,inactive: 114%
22,COc1ccc(/N=c2\scc(-c3ccc(OC)c(OC)c3)n2CCCO)cc1,inactive: 81.6%
23,COc1ccc(C(=O)N(Cc2ccccc2)c2nc3[nH]c(C)cc(=O)n3n2)cc1,inactive: 79.9%

row,SMILES,intracellular bacterial bioluminescence
1,O=C1Cc2cc(NS(=O)(=O)c3ccc4c(c3)NC(=O)CO4)ccc2N1,inactive: 111%
2,Cn1c(=O)c2c(nc3n2CCCN3Cc2ccco2)n(C)c1=O,inactive: 109%
3,O=C1c2cccc3cccc(c23)C(=O)N1CCCc1nc2sc3c(c2c(=O)[nH]1)CCCC3,inactive: 49.2%
4,CC(=O)N1c2ccc(S(=O)(=O)NCCc3n[nH]c(-c4ccc(F)cc4)n3)cc2CC1C (stereo not given),inactive: 107%
5,O=C(CCCN1C(=O)/C(=C\c2ccco2)SC1=S)Nc1ccccc1C(=O)O,inactive: 100%
6,Cc1sc(NC(=O)c2nc3ccccc3s2)c(C(N)=O)c1C,inactive: 133%
7,CCS(=O)(=O)c1ccc(C(=O)Nc2nc3cc(C)cc(C)c3s2)cc1,inactive: 124%
8,O=C(CSc1nc2sc3c(c2c(=O)[nH]1)CCC3)Nc1ccccc1C(F)(F)F,inactive: 82.1%
9,COc1cc2ncc(C(=O)NCCO)c(O)c2cc1OC,active: 156%
10,CCOC(=O)c1oc2ccccc2c1NC(=O)/C=C\c1ccc2c(c1)OCO2,inactive: 109%
11,O=C(COc1cccc2c1CCNC2=O)Nc1ccccc1C(F)(F)F,inactive: 89.4%
12,COc1ccc(CCNC(=O)Cn2cnc3c(nnn3-c3cccc(Cl)c3)c2=O)cc1OC,inactive: 99.2%
13,O=C(NCc1ccccc1)c1cc2cc([N+](=O)[O-])ccc2s1,inactive: 65.2%
14,Cc1cc(NC(=O)CSc2nnc(-c3ccncc3)o2)no1,inactive: 69.9%
15,CC1CCCN(S(=O)(=O)c2ccc(C(=O)Nc3ccccc3C#N)cc2)C1 (stereo not given),inactive: 51.1%
16,Cc1cc(C)c2cc(CN(Cc3cccnc3)C(=O)Nc3ccccc3)c(Cl)nc2c1,inactive: 81.7%
17,O=C(CSc1nc(-c2ccccc2)cc(=O)[nH]1)N1CCN(c2ccccc2)CC1,inactive: 121%
18,COc1cccc2cc(C(=O)Nc3ccc(N4CCOCC4)c(Cl)c3)c(=O)oc12,inactive: 106%
19,CCOc1ccc(-n2cc(-c3ccccc3)c3c(N4CCN(C(=O)COc5ccccc5C)CC4)ncnc32)cc1,inactive: 83.9%
20,CC1=C(C(N)=O)C(c2ccccc2)n2nc(-c3ccc(O)cc3)nc2N1 (stereo not given),inactive: 114%
21,O=C(NCCCc1nc2cc3ccccc3cc2[nH]1)c1ccc2nccnc2c1,inactive: 119%
